Measured values: article PMC9600550, “The pH Robustness of Bacterial Sensing” (mBio, 2022)

By UniProt entry, the sequences of proteins in these tests, tags left out. Residues count along the entry.
UniProt P07017, 31-188 limits assumed: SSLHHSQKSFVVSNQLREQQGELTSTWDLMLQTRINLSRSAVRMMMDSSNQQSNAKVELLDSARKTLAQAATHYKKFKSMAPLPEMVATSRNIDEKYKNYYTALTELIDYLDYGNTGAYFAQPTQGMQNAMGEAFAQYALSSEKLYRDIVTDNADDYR

Biological target: Tar-LBD (Escherichia coli, UniProt P07017)
Test: Differential scanning calorimetry of Tar-LBD thermal unfolding in presence of L-Asp
Conditions: pH 7.0; 1 mM L-Asp; two transitions

N[C@@H](CC(=O)O)C(=O)O [L-aspartate]
ΔH of Tar-LBD thermal unfolding: 79.3 kcal/mol and 26.2 kcal/mol

Some entries of the source have several records that differ or are many. This list holds those alone. An entry can have further records. Values that stand side by side differ, and nothing given here explains why; some may be repeats, others may stem from another dose, organism or construct than stated.
